# The full ranking holds about 33,000 sequences; the median of “E-score (-0.5 to 0.5)” is about -0.016, and the highest 2% start at about 0.3. The list shows a part of the results.
# Target: T1, Yer184c (UniProt P39961)
# T1 sequence: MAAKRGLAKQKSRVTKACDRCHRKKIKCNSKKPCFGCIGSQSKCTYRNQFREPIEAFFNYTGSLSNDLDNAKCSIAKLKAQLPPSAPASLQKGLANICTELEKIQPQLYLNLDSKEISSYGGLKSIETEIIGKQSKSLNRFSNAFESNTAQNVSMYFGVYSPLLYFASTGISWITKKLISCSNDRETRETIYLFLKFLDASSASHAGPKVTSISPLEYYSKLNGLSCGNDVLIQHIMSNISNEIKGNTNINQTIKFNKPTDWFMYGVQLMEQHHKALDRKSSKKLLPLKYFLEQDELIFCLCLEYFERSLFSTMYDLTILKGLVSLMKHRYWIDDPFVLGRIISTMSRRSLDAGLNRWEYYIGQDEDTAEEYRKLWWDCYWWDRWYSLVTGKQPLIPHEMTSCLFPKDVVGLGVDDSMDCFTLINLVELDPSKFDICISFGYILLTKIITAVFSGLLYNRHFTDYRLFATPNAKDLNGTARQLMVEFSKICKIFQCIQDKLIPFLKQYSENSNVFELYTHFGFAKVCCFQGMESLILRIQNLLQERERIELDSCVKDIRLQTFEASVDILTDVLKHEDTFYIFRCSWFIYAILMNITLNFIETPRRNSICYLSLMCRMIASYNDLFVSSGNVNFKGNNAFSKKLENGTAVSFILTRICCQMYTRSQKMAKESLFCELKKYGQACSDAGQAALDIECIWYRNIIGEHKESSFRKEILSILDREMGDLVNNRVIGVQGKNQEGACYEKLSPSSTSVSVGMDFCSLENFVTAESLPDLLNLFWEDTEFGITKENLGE
# Test: PBM E-score (8-mer binding enrichment) (E-score (-0.5 to 0.5)); higher = stronger / more preferred TF binding
# Details: protein concentration: 100 nM; construct: GST-full length
# In short: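 For each ungapped eight-base word taken together with its reverse complement, the Universal PBM Analysis Suite assigned an E-score. Binding data came from GST-tagged yeast transcription factors, applied at about 100-200 nM, on universal all-10-mer Agilent arrays made double-stranded by primer extension. Fluorescent anti-GST marked bound protein, and scans were normalised with masliner.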
row,Sequence,PBM E-score
1,CGCCTACC,-0.189
2,GTCCTACA,0.127
3,ACTTGATC,0.067
4,GGACGTTA,-0.0625
5,AGCATAAG,0.0447
6,AATCTGTA,0.116
7,ATCACATC,0.0225
8,AAACATCT,0.122
9,GGTATCCA,0.125
10,AACTAGCA,0.0764
11,GTTGGTCA,-0.00964
12,ACATCCTG,0.0484
13,AGTAATCG,0.00859
14,AGACTGCT,-0.248
15,AGATCTGC,0.135
16,GCGTTCCC,-0.0546
17,ATCACCAA,-0.0977
18,CCCGGACG,-0.0945
19,AGACCGCC,-0.101
20,CGCATTTA,0.123
21,CCCAGAGG,-0.375
22,ATCCCACC,-0.0176
23,AGGCGCAA,0.0513
24,TTCCGCAA,0.259
25,ATCCGAAG,0.302

row,Sequence,PBM E-score
1,ATATCCCG,0.223
2,CTCAGATA,0.143
3,AACTTCGA,0.0739
4,AATAACAT,0.109
5,AGAACGTG,0.0203
6,AAGTATGT,0.027
7,CTTATTGC,-0.216
8,CAGGCGCA,-0.0642
9,AGCAGTGC,-0.185
10,TTGCGCAA,-0.0396
11,TAGGCGGA,-0.00816
12,CGGTGGGC,-0.0538
13,CAACCTTG,-0.103
14,AATTTACT,0.161
15,TAGGGTCA,-0.2
16,ACATCGAC,-0.0912
17,CCACTATC,-0.109
18,GTTTGCTA,0.0684
19,GTAACATA,0.0708
20,ATCATTGA,0.182
21,CTTCCGCC,0.024
22,ATGAGAGC,-0.0686
23,GTATGACA,-0.0378
24,GAACTTAA,0.133
25,AGGCACGC,-0.218

row,Sequence,PBM E-score
1,TTAACGAA,0.262
2,CATAGTAC,-0.0277
3,GAACCCTC,-0.248
4,GGTTCCGA,0.278
5,CTTGTAGA,-0.233
6,CGAACTAG,0.183
7,CAGTTTCA,-0.151
8,CGTCTATC,-0.118
9,GTACCCAC,-0.122
10,GCAGTGAA,0.0843
11,AACGGTGT,-0.119
12,CAGTACTC,-0.232
13,CACACATA,0.0575
14,CTGTGCAA,-0.0616
15,CCGTGACC,0.0268
16,CCTGAGCG,-0.161
17,TACGTCAA,-0.258
18,ACCATTAA,0.206
19,ATTCCTTA,0.0278
20,AACCCAGA,-0.0353
21,AACTAATG,0.148
22,AATTTGCC,0.0902
23,CTTCGACC,-0.0596
24,ATACCAAT,-0.0356
25,GATTAGCC,0.0506

row,Sequence,PBM E-score
1,CAATGCCG,0.22
2,AAATACGG,0.116
3,TATTCTCA,0.154
4,AGGCTCTC,-0.0895
5,CCCTAGTC,-0.41
6,CCACCGTA,-0.0148
7,GAAGGCTC,-0.107
8,CTGACGCA,-0.25
9,CACATGAA,0.0129
10,ATAAGAAC,0.202
11,TCTTCGAA,0.0317
12,CTAAGAAC,0.0817
13,AACTTATA,0.188
14,ATCAGCGG,-0.00977
15,CAGCACGG,0.183
16,ACGAGTAG,-0.021
17,CTTCCGCA,0.068
18,ACATATCA,0.024
19,CTGGAAAG,-0.131
20,CGAGTGGC,-0.0808
21,CTATGGAA,0.168
22,ACCTTGGC,-0.154
23,CAAACATG,-0.0644
24,CTTGGTTC,0.183
25,AGCCAAAA,0.0812

row,Sequence,PBM E-score
1,ACGTCGTC,-0.0607
2,CACAATAC,0.0256
3,TGCGTCCA,-0.126
4,AGTTCGTA,0.109
5,CCTCTCAC,-0.15
6,CACAGAAA,0.165
7,CCCAAGTC,-0.223
8,CGGCATAA,0.273
9,GACTATGA,-0.147
10,CTCAGGGC,-0.0473
11,CTGCCTCC,-0.339
12,TTAACCAA,-0.0477
13,GAAACGCA,0.041
14,GAATACCA,0.0494
15,GTAGGAAC,0.0812
16,AAGCCGGG,0.246
17,TCCCTACA,-0.13
18,AAAGGGGC,-0.273
19,CGTTGTGA,0.0532
20,AAAGCCTA,-0.12
21,TCTCTTCA,0.133
22,TAGGTGAA,0.0169
23,ATGTGTTA,0.066
24,CTCCCCAG,-0.399
25,CTAGGGCA,-0.311

# For convenience, part of the list above.
row,Sequence,PBM E-score
13,GAAACGCA,0.041
14,GAATACCA,0.0494
15,GTAGGAAC,0.0812
16,AAGCCGGG,0.246
17,TCCCTACA,-0.13

# (next part)

row,Sequence,PBM E-score
1,AGTCTCGC,-0.142
2,AACGGCAA,0.178
3,GCGACCAA,0.0217
4,CGCGTAAA,0.127
5,CATTCATA,0.186
6,ACCCTAAG,-0.129
7,CCTGCACA,-0.255
8,ATGCATAA,-0.0648
9,CCCGGTAC,0.0651
10,CTTGGTGC,-0.175
11,ATGCATCC,0.00412
12,GAATCCTA,0.152
13,AGTCCAAT,-0.049
14,TCAACACA,0.179
15,CTCAATAA,0.0747
16,GTAGTCCA,-0.154
17,CTCCTCAC,-0.189
18,GCGCGGCA,0.158
19,TACCGTAA,0.103
20,GCTATCGA,-0.102
21,AAAGGGTC,-0.125
22,AGGGCACG,-0.329
23,ACCCTCTA,-0.305
24,AACTGCGT,-0.00116
25,ACATGGAT,-0.0527

row,Sequence,PBM E-score
1,CATCTTTA,0.15
2,AAAATTAT,0.316
3,ATCCGGAA,0.418
4,AACGACAC,-0.186
5,ATAGTCCC,-0.267
6,CTTGTTTC,0.0564
7,GATGAACA,0.143
8,ATCTTCAT,0.0601
9,CCTCGTGC,0.0746
10,CCTCGGAA,0.28
11,CAAGCGAC,-0.208
12,GCTTAGCA,-0.0181
13,ACTCATAG,-0.0267
14,ATACGTTA,-0.0508
15,AACGATAG,0.0402
16,ATCAGAGC,-0.119
17,CTAGCCCC,-0.22
18,GCACTAGA,-0.138
19,GGGACTAC,-0.0414
20,CTTGGTAC,-0.0492
21,AATATGCC,-0.0491
22,CTGATTAA,0.221

# Reference: the supplement of paper PMC3334620
